The other results are listed elsewhere or left out.

Sequences of proteins named here, by UniProt entry; tags and fusion partners are left off.
UniProt Q0JBA9, entry or part of it: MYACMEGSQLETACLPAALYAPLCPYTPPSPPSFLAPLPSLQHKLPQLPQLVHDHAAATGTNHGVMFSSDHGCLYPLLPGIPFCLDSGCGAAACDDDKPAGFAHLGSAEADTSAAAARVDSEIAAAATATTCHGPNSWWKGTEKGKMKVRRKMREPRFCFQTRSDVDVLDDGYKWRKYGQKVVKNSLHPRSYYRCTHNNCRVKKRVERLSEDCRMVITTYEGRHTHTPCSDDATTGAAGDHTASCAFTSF

The assay has as its target OsWRKY34 (Oryza sativa, UniProt Q0JBA9 1-250). The experiment in a line: protein-binding microarray (RPBM); PBS, 2% BSA, 51.3 ng/ul salmon testes DNA, 50 uM zinc acetate, 200 nM TF, 25 C, 1 h; high values mean tight binding. The following applies: protein: recombinant; tags: N-terminal polyhistidine and DsRed monomer fusion (pET32a); label: CyDye5-dUTP incorporated in the synthesized complementary strand; 3' TTTTT single-stranded linker to array surface; dsDNA, one strand shown. Put shortly: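 Binding signal is defined as the fluorescence intensity of each feature in arbitrary units, read on an Axon 4000B scanner. Transcription factors with N-terminal polyhistidine and DsRed fusions came from E. coli BL21-CodonPlus and were purified on Ni–NTA. They were incubated at 200 nM for 1 h at 25 °C on a custom Agilent array that had been made double-stranded with Cy5-dUTP, with 50 µM zinc acetate present, and the array was washed.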
For the sequence “TGTGTGTGCTATGATTTTTTTTCTTCTTCACCAGAACAAACGGAGTCACCTAGTGCAG”, the binding signal is 14100 fluorescence intensity (a.u.).
As for “TAGTGGTGCCTTTTACCTCCCATTGTTGTCCTTTGATAGGCGGAGTCACCTAGTGCAG”, the figure is 8080 fluorescence intensity (a.u.); as for “CGGTCCCAGACCCTACCTGCCTGCTGCCGTGCCACTGAACCGGAGTCACCTAGTGCAG”, 8620 fluorescence intensity (a.u.); as for “ATTTGCAAGTTCAATTTTGGCCCTTTTTTTGTGTGATTCACGGAGTCACCTAGTGCAG”, 9550 fluorescence intensity (a.u.).
For the sequence “TTTTGTTTCTGATTTCAGCTATTCTTCTTCTTGCATCCCACGGAGTCACCTAGTGCAG”, the binding signal was 9440 fluorescence intensity (a.u.).
For “ACCTAACTCATGATCCATTCCCATTCCCGTGCAATTTTTCCGGAGTCACCTAGTGCAG” the value was 11700 fluorescence intensity (a.u.).
As for “GGGGCGGGAGGGAGGGAGCGAATCTGAGGTGGTGGCTATGCGGAGTCACCTAGTGCAG”, the figure is 13700 fluorescence intensity (a.u.).
For “CTGATTTGCGGGTTCCACATGGATTTTATTTTTTTGTTTCCGGAGTCACCTAGTGCAG” the value was 11400 fluorescence intensity (a.u.); for “TACTTTAAGCATAACTTTTCGTTTTTTATATTTGCACAAACGGAGTCACCTAGTGCAG”, 9200 fluorescence intensity (a.u.); for “CCCGACCATTTTCATTCCTACCTACAGCTACGAGGCACTTCGGAGTCACCTAGTGCAG”, 10100 fluorescence intensity (a.u.).
As for “GCTTTCTTTCTTGTTTTCAGACTTATTTTCCTGTTTCATTCGGAGTCACCTAGTGCAG”, the binding signal was 13900 fluorescence intensity (a.u.).
For “GGGACCTTCTTGAGCTTTCCCGTGTTTTCTATTCATGTAGCGGAGTCACCTAGTGCAG” the value was 11500 fluorescence intensity (a.u.).
For “TTTTTCCACTGGTTTGGTTGCAGCTATGTTACTCTTTGAACGGAGTCACCTAGTGCAG” the value was 14300 fluorescence intensity (a.u.); for “TTCTGGTCTCGCTGTTAGATTCACCAAGAAACTCATTTCTCGGAGTCACCTAGTGCAG”, 8090 fluorescence intensity (a.u.).
For “ACTCTACCACCACCACCACCGCGGAGTCACACCCGAAGCCCGGAGTCACCTAGTGCAG” the value was 13600 fluorescence intensity (a.u.).
“TCTTGTCTGTTCTTCAGTAATCATCCTTTTGTCATTCAGACGGAGTCACCTAGTGCAG”: the binding signal was 10200 fluorescence intensity (a.u.).
As for “AGTTGAGTGGTACTGTAGTGTTGTTGTTCTCTTCCCTTGGCGGAGTCACCTAGTGCAG”, the figure is 9940 fluorescence intensity (a.u.).
For “ATCGTTGATTTTTTTACTTACGTTTGGCCATTGTTCTCATCGGAGTCACCTAGTGCAG” the value was 11500 fluorescence intensity (a.u.).
As for “TGCGCATGGTAGGAAGGTTATGACGTGTTTGTATTCTCTTCGGAGTCACCTAGTGCAG”, the figure is 9600 fluorescence intensity (a.u.); as for “GATTATAAAATAAATCTTAAATGACTATTTAAATCGATTCCGGAGTCACCTAGTGCAG”, 8040 fluorescence intensity (a.u.); as for “TCATTGGTACTTTCACAATCACATTCCCATTTTGCGTTTTCGGAGTCACCTAGTGCAG”, 9950 fluorescence intensity (a.u.).
Turning to “GTGGGGTCCCTTCTTGCTCTATGCTAATTAATGGTAAATTCGGAGTCACCTAGTGCAG”, the binding signal was 8880 fluorescence intensity (a.u.).
As to “GATGGATTTTGGTTTGTGGAATTGTGCAGGAGAGTTGCTGCGGAGTCACCTAGTGCAG”, the binding signal was 8440 fluorescence intensity (a.u.).
For “GGAGAGAGAGGACAGGAGGGGAGGGCTGAGCTCGTTGGGTCGGAGTCACCTAGTGCAG” the value was 12200 fluorescence intensity (a.u.); for “GCTCATGCTAGCCCTGTCATTTTCAGTCCTAAATTAAATCCGGAGTCACCTAGTGCAG”, 8480 fluorescence intensity (a.u.).
As for “GCTAGCTGGATTGGTGGGTGGGCGCGTCAAGAAGGGGATGCGGAGTCACCTAGTGCAG”, the figure is 9830 fluorescence intensity (a.u.).
For “GTTATCGCTATATCTCAGTGTAATCTAATCGCATTCGCTACGGAGTCACCTAGTGCAG” the value was 9700 fluorescence intensity (a.u.); for “ATCTGAAAGCAAATATCACAAGTGCTGGGGTGCTGGGGTCCGGAGTCACCTAGTGCAG”, 9760 fluorescence intensity (a.u.).
On to “TATATATTGTTTCATGAGATATAAAACTTACTTGATCTTTCGGAGTCACCTAGTGCAG”, for which the binding signal is 8300 fluorescence intensity (a.u.).
Consider “ACATTAAAATTGTCCCGTGACTTCACTTTTCCACGGTATCCGGAGTCACCTAGTGCAG”, for which the binding signal was 8090 fluorescence intensity (a.u.).
As for “GGCTTTGGATTTTTTTTTCTTTTTTCTTTGGCCTGAATAGCGGAGTCACCTAGTGCAG”, the figure is 9160 fluorescence intensity (a.u.); as for “ACCACTGCAATCTCGCCCCGCCGCACGCACTCCACTAGCTCGGAGTCACCTAGTGCAG”, 12400 fluorescence intensity (a.u.).
As for “GGTCGCTTGTCGCTGCCTCTACCTCGTCCTCTGCTGATTTCGGAGTCACCTAGTGCAG”, the figure is 9200 fluorescence intensity (a.u.).
As for “TATATGTATTGGTTGGAAGTTCTGTAAAATTTGAAGCTTCCGGAGTCACCTAGTGCAG”, the figure is 8280 fluorescence intensity (a.u.); as for “GCAGATTTGTTCAAGTTACATAGTTACACTCTAGTTACATCGGAGTCACCTAGTGCAG”, 8780 fluorescence intensity (a.u.).
On to “CTGTACTGGTTTAGACTATCTCAGCTCACTTATCTCTTCACGGAGTCACCTAGTGCAG”, for which the binding signal was 10200 fluorescence intensity (a.u.).
For “AATGCAACCATTAAGTTGTCGTTTAGTTGACTTTGTCTACCGGAGTCACCTAGTGCAG” the value was 8690 fluorescence intensity (a.u.); for “GGCACAATGTACTGGAATTATCCTTTTTCTTTCTCTGTAACGGAGTCACCTAGTGCAG”, 10500 fluorescence intensity (a.u.).
For “GATATTTTTGCCGGTATTTTGGTACGTTATTCGTGTTTGACGGAGTCACCTAGTGCAG” the value was 8090 fluorescence intensity (a.u.); for “ACTTACTTATCCTTAGTCATTGTGCCAAGATGAAATATGACGGAGTCACCTAGTGCAG”, 8480 fluorescence intensity (a.u.); for “AGCCGTTCGACTCTTTTGTGAATTCACGGGCTCACAGTATCGGAGTCACCTAGTGCAG”, 9770 fluorescence intensity (a.u.).
For the sequence “ACTACCTCCATACACCAACCCTACGCATACACCAAACACACGGAGTCACCTAGTGCAG”, the binding signal was 9860 fluorescence intensity (a.u.).

Values taken from paper PMC7819943, “Rice protein-binding microarrays: a tool to detect cis-acting elements near promoter regions in rice”.
